Test results taken from patent US20240245677A1, “SELECTED COMPOUNDS FOR TARGETED DEGRADATION OF BRD9” (C4 THERAPEUTICS, INC., priority 2021, published 2024).
Read-outs that look alike come from different tables or passages of the source.

Tests used:
[1] = Plasma protein binding by ultracentrifugation, mouse plasma; details: average n = 3
Experimental: (§1) Plasma protein binding (PPB) of Compound 1 was evaluated in plasma from mice, rats, dogs, cynomolgus monkeys, and humans using ultracentrifugation.
(§2) Frozen plasma from CD-1 mice, Sprague-Dawley rats, beagle dogs, cynomolgus monkeys, and humans was purchased and stored at ≤−30° C. On the day of study, plasma samples of CD-1 mice, Sprague-Dawley rats, beagle dogs, cynomolgus monkeys and humans were thawed under running cold tap water and centrifuged to remove any particulates.
(§3) For the internal standard, telmisartan, a 1 mg/mL solution was prepared by dissolving 1.4 mg of telmisartan in 1.4 mL of DMSO, and stored at 4° C.
(§4) The 10 mM stock solution of each test compound was used to prepare 400 μM intermediate stocks in methanol. Then, a 2 μM working stock of each test compound was prepared for plasma from each species (mouse, rat, dog, monkey, and human) by spiking 12 μL of the 400 μM intermediate stock for each test compound into 2400 μL of thawed and prepared plasma from a test species. […]
(§5) All the stability samples and centrifuged samples were vortexed at 1000 rpm for 5 minutes and centrifuged at 4000 rpm for 10 minutes. Supernatant from each sample was separated, diluted 2-fold with water, and analyzed in LC-MS/MS.
(§6) Samples (supernatant-free fraction and total plasma) were analyzed by LCMS-MS (no standards).

[2] = Plasma protein binding by ultracentrifugation, rat plasma
Experimental: as §1, §2, §3
(§7) The 10 mM stock solution of each test compound was used to prepare 400 μM intermediate stocks in methanol. Then, a 2 μM working stock of each test compound was prepared for plasma from each species (mouse, rat, dog, monkey, and human) by spiking 12 μL of the 400 μM intermediate stock for each test compound into 2400 μL of thawed and prepared plasma from a test species.
(§8) 400 μL of blank plasma for each species was transferred to a 0.5 mL Beckman tube (Part No. 343776, Beckman Coulter Life Sciences, Indianapolis, IN, USA) and centrifuged for 3 hours at 627000×g at 37° C. The supernatant was removed and kept at room temperature.
(§9) To prepare for ultracentrifugation, the rotor of the centrifuge was placed into an incubator and warmed up to 37° C. before centrifugation. The vacuum switch of the OPTIMA™ MAX-TL Ultracentrifuge (Beckman Coulter Life Sciences, Indianapolis, IN, USA) was turned on and the vacuum was reduced to less than 10 microns to warm up the system. The ultracentrifuge's parameters were set to the following: Temperature—37° C.; Time—3 hours; and Speed—627000×g. […]
as §5, §6

[3] = Plasma protein binding by ultracentrifugation, monkey plasma; details: average n = 3
Experimental: as §1, §2, §3, §4, §5, §6

[4] = human, plasma, 2 µM
Experimental: as §1, §2, §3, §7, §8, §9, §5, §6

[5] = Plasma protein binding by ultracentrifugation, dog plasma; details: average n = 3
Experimental: as §1, §2, §3, §4, §5, §6

% Remaining at 3 hours [1]: 125.31%
fraction unbound at 3 h, 2 µM ([2]; Sprague-Dawley, rat, plasma): 0.846
% Bound ([2]; rat plasma, average n = 3): 15.40%
% Remaining at 3 hours ([2]; rat plasma, average n = 3): 85.83%
% Remaining at 3 hours [3]: 124.51%
% Remaining at 3 hours [4]: 90.68%
% Bound ([4]; 3 h): −4.26%
% FU ([4]; 3 h): 104.26%
% Remaining at 3 hours [5]: 75.82%
Structure (SMILES): CC(C)NCC(O)COc1ccc(CC(N)=O)cc1 (stereo not drawn) [Atenolol]
